Laboratory results: the supplement of paper PMC10849652
Some of the results follow.

Chains of the proteins cited; added tags and fusions are not shown. Lines headed by an entry give the natural chain unless they say otherwise; changes in a name come on top.
UniProt O43617, whole entry, looked up: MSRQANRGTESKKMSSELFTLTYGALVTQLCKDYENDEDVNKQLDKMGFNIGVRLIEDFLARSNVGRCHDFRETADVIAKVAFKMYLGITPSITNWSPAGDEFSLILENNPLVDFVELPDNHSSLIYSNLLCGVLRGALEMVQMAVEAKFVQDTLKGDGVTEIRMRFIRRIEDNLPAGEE
UniProt Q9UJA5: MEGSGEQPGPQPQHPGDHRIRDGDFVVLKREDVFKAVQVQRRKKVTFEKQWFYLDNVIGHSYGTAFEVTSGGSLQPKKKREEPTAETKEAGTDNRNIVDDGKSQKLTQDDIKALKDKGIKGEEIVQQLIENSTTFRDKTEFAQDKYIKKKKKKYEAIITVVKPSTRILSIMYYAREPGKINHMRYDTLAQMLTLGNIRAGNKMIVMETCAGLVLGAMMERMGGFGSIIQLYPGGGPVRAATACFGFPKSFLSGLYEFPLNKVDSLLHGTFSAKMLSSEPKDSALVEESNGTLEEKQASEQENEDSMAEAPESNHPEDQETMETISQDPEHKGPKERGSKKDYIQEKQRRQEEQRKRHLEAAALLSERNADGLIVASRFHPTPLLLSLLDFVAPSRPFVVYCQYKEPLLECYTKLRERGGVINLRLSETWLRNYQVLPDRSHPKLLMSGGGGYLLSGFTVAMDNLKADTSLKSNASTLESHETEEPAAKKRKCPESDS
UniProt Q53H54: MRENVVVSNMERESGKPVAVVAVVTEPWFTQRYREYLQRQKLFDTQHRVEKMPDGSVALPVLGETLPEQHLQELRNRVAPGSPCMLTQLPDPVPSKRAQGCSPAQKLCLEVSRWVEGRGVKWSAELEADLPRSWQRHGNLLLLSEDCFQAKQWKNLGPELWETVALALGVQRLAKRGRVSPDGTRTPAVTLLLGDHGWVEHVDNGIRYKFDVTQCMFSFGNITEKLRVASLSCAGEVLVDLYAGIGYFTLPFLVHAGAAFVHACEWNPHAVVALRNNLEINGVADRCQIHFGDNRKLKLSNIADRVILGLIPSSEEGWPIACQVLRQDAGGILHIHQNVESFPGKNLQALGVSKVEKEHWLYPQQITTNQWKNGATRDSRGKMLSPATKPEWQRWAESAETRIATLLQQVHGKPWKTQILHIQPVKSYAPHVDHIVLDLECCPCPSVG
UniProt Q15654: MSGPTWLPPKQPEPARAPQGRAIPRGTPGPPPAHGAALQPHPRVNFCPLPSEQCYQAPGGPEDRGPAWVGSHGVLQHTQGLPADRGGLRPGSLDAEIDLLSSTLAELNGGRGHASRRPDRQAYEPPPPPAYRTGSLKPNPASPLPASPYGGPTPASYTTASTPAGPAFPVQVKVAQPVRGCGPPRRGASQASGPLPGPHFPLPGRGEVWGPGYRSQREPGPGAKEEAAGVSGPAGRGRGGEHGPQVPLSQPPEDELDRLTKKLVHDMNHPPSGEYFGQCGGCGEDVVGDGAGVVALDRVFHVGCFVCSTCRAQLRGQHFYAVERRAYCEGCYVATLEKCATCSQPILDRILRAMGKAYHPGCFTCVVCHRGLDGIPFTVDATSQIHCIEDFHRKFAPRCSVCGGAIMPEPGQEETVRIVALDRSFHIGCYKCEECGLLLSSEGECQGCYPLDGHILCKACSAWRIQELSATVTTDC
UniProt Q8TEL6: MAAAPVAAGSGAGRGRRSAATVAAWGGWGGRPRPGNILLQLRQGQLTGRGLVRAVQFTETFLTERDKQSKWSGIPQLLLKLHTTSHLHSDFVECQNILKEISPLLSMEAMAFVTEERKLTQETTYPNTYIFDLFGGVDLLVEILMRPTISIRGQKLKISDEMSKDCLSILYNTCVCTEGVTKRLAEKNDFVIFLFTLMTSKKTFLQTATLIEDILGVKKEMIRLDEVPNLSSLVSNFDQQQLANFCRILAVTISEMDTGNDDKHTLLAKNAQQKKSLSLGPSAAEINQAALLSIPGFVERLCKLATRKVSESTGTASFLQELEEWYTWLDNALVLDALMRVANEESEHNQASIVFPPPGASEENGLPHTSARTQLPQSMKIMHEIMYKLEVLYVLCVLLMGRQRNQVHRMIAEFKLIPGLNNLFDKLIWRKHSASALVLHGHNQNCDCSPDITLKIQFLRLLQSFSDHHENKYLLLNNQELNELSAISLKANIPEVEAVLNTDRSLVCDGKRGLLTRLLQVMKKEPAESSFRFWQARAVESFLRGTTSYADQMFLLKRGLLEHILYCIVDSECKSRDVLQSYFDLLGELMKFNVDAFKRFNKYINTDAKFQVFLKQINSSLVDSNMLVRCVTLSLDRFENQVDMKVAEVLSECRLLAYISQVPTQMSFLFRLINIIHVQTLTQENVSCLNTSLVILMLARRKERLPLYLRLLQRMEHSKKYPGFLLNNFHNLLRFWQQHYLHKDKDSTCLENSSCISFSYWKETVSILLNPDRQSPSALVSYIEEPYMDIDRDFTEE
UniProt P48553, whole entry, looked up: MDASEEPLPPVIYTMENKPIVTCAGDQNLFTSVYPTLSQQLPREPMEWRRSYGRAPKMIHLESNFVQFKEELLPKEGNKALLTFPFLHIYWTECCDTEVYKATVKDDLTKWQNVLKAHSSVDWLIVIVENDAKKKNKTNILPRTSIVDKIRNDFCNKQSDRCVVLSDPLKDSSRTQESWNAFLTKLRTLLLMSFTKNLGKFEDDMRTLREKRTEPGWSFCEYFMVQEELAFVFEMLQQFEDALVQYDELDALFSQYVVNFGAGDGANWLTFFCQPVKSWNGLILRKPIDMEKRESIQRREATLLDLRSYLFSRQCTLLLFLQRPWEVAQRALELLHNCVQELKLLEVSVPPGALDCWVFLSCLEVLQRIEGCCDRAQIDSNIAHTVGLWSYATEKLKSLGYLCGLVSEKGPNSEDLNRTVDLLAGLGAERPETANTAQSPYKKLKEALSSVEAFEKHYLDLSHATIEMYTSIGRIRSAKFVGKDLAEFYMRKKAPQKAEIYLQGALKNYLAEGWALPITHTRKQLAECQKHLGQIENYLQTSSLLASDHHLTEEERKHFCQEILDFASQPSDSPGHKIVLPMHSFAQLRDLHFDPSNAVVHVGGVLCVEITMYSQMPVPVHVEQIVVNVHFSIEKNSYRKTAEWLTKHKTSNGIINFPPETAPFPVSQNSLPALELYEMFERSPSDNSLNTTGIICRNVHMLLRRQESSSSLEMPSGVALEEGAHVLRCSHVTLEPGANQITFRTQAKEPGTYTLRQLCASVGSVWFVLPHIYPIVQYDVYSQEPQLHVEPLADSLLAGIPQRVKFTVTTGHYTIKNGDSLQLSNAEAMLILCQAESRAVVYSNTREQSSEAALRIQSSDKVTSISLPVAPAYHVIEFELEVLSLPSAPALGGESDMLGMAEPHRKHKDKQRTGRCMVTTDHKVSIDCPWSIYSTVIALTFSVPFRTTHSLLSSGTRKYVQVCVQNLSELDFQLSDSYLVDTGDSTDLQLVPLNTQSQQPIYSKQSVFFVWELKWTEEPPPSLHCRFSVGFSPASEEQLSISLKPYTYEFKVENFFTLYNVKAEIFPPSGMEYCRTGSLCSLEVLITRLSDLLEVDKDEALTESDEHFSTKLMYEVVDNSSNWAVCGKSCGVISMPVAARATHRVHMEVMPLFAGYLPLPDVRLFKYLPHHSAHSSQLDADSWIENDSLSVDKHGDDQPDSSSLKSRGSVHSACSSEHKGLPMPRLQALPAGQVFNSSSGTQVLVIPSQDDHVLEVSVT
UniProt Q8NCE0: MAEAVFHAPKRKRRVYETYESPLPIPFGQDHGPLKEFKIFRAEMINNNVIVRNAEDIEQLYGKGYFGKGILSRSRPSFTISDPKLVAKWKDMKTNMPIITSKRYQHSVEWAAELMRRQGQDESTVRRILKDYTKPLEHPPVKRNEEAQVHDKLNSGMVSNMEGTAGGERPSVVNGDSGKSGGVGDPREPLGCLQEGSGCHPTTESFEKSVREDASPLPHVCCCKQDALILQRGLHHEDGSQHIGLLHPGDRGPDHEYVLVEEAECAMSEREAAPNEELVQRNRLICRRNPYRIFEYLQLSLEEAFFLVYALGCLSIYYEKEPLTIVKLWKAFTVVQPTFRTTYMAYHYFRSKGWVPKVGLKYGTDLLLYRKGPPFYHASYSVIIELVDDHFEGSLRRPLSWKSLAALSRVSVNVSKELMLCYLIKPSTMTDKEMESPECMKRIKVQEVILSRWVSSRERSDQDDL
UniProt Q9Y5R8, whole entry, looked up: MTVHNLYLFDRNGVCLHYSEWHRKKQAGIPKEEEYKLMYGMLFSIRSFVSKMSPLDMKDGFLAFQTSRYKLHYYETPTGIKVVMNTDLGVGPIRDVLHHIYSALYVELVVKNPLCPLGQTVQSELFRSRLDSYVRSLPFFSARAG
UniProt Q9Y296, whole entry, looked up: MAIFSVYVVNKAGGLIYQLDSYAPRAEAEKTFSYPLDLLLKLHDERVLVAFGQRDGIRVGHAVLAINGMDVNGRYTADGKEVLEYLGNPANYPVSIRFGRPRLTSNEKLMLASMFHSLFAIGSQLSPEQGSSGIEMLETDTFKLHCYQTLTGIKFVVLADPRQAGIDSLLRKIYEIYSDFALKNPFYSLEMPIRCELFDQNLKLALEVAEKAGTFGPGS
UniProt Q15714: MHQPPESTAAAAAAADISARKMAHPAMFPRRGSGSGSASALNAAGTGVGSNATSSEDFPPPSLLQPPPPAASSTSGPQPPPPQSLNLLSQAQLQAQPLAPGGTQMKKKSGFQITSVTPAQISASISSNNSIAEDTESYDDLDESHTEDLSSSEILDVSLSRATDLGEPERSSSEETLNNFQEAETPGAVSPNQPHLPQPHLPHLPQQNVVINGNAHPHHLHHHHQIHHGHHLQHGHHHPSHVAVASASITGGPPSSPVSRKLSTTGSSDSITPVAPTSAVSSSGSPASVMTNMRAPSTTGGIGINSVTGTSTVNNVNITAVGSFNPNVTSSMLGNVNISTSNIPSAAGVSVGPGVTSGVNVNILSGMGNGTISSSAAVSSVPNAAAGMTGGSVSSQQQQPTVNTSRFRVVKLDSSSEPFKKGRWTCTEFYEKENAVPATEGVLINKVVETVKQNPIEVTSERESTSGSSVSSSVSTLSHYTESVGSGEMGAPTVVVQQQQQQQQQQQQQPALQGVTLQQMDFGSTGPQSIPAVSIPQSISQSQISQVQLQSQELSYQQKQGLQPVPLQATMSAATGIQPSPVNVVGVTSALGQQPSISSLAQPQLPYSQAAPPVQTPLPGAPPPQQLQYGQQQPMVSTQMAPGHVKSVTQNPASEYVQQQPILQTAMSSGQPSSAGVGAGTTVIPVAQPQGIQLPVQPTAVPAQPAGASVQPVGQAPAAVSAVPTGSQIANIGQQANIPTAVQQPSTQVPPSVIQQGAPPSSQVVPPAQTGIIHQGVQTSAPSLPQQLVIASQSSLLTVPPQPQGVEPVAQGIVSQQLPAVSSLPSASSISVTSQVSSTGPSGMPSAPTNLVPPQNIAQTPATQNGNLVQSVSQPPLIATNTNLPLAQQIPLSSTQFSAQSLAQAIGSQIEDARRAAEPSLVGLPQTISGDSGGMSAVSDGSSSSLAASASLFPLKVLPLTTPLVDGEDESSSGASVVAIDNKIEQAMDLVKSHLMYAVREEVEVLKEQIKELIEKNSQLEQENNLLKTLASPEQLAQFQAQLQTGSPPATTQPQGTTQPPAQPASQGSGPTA
UniProt Q12931: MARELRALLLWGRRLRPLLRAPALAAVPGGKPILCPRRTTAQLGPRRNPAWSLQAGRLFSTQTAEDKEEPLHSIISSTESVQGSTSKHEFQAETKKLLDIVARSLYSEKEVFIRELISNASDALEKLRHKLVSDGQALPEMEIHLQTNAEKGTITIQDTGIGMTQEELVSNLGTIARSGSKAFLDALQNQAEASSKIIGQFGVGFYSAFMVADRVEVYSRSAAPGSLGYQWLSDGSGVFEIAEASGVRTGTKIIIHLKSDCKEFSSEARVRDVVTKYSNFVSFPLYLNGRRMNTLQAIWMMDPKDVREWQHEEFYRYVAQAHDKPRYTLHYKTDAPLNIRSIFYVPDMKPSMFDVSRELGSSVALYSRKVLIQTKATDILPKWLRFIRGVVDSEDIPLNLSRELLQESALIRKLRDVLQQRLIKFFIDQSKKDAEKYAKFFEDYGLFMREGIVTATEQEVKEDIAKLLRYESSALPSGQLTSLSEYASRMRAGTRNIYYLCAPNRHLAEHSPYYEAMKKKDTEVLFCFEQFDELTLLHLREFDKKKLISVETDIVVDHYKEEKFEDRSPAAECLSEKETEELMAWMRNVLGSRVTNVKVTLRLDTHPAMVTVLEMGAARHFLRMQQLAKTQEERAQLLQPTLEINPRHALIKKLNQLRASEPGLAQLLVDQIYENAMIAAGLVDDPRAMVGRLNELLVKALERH
UniProt Q13630: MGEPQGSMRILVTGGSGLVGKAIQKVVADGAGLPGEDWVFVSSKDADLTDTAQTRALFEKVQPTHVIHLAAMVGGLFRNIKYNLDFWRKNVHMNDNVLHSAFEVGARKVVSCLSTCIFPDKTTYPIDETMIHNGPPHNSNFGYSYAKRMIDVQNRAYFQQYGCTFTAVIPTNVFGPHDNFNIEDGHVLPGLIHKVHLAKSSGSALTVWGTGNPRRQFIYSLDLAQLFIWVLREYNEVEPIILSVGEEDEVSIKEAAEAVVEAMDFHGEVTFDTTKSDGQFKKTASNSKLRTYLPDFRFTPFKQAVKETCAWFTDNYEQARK

How the values were obtained:
Assay in all cases: log2 fold change, soluble protein after heating vs DMSO (PISA); higher = thermal stabilisation; K562 lysate, 10 uM; active = over 0.2 and 3.5 SD of the protein, either way, in both replicates (recomputed)
[1] = compound: C1=CC=C(C=C1)[C@H](COC2=CC3=C(C=C2)NC(=O)N3)NC(=O)C4=CC=CN(C4=O)CC5=CC(=C(C=C5)F)F
How it was run: (§1)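 The values are log-two fold changes in thermal stability compared with solvent controls and come from duplicates. They were obtained by TMTpro 16plex LC-MS/MS, with channel sums equalised, on the supernatant after 21,000xg for 90 min. That supernatant came from crude K562 extract at 1 mg/mL protein treated with 10 μM compound for 30 min, heated for 3 min across 48°C-58°C, pooled and brought to 0.5% NP-40 at 4°C.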

[2] = compound: CC1=C(SC2=C1C(=N[C@H](C3=NN=C(N32)C)CC(=O)N)C4=CC=C(C=C4)Cl)C
How it was run: as §1

[3] = compound: CC1=C2C(=CC=C1)N=C(N(C2=O)C3=CC=CC=C3C)CN4C=NC5=C(N=CN=C54)N
How it was run: as §1

[4] = compound: Cc1sc2c(c1C)C(c1ccc(Cl)cc1)=N[C@@H](CC(=O)OC(C)(C)C)c1nnc(C)n1-2
How it was run: as §1

[5] = compound: c1ccc([C@@H]2C[C@H]2NC2CCNCC2)cc1
How it was run: as §1

Measured: log2 fold change

TRAPPC3 (UniProt O43617)
inactive: [1] -0.008 | [2] -0.032 | [3] -0.027 | [4] 0.01 | [5] 0.016

TTC37 (UniProt Q6PGP7)
inactive: [1] -0.08 | [2] 0.044 | [3] 0.16 | [4] -0.3

TTC13 (UniProt Q8NBP0)
inactive: [1] -0.017 | [2] 0.076 | [3] 0.033

TTC9C (UniProt Q8N5M4)
inactive: [1] -0.033 | [2] 0.049 | [3] 0.01 | [4] 0.033 | [5] -0.035

TRAPPC6A isoform 2 (UniProt O75865)
inactive: [1] 0.025 | [2] 0.046 | [3] -0.043 | [4] -0.003 | [5] 0.014

TRIM65 (UniProt Q6PJ69)
inactive: [1] 0.051 | [2] -0.085 | [3] -0.016 | [4] 0.012 | [5] 0.039

TRIP13 (UniProt Q15645)
inactive: [1] 0.006 | [2] 0.015 | [3] 0.018 | [4] 0.01 | [5] 0.049

TTC39B (UniProt Q5VTQ0)
inactive: [1] -0.072 | [2] -0.001 | [3] -0.418 | [4] 0.025

TTC19 (UniProt Q6DKK2)
inactive: [1] 0.003 | [2] 0.046 | [3] -0.003 | [4] -0.012 | [5] -0.045

TRAPPC6B (UniProt Q86SZ2)
inactive: [1] 0 | [2] -0.02 | [3] 0.023 | [4] 0.024 | [5] -0.038

TRMO (UniProt Q9BU70)
inactive: [1] 0.097 | [2] -0.148 | [3] -0.02 | [4] 0.123

TRIM21 (UniProt P19474)
inactive: [1] 0.006 | [2] 0.039 | [3] 0.069 | [4] -0.012 | [5] 0.259

TRAF6 (UniProt Q9Y4K3)
inactive: [1] 0.052 | [2] -0.003 | [3] -0.023 | [4] 0.009 | [5] -0.01

TSC1 (UniProt Q92574)
inactive: [1] -0.006 | [2] -0.094 | [3] 0.067 | [4] -0.005 | [5] 0.036

TRMT6 (UniProt Q9UJA5)
inactive: [1] 0.042 | [2] -0.008 | [3] 0.017 | [4] 0.002 | [5] 0.022

TTC17 (UniProt Q96AE7)
inactive: [1] -0.025 | [2] -0.062 | [3] -0.034 | [4] -0.057 | [5] -0.046

TTC1 (UniProt Q99614)
inactive: [1] 0.054 | [2] 0.001 | [3] -0.006 | [4] -0.03 | [5] 0.015

TROAP (UniProt Q12815)
inactive: [1] -0.008 | [2] 0.12 | [3] 0.024 | [4] 0.057 | [5] 0.096

TTC38 (UniProt Q5R3I4)
inactive: [1] -0.001 | [2] 0 | [3] 0.05 | [4] 0.003 | [5] 0.126

TSC22D2 (UniProt O75157)
inactive: [1] -0.033 | [2] 0.023 | [3] 0.009 | [4] 0.047 | [5] -0.066

TRIM44 (UniProt Q96DX7)
inactive: [1] 0.096 | [2] -0.126 | [3] -0.061 | [4] -0.031 | [5] 0.083

TRMT12 (UniProt Q53H54)
inactive: [1] 0.104 | [2] -0.023 | [3] -0.007 | [4] -0.061 | [5] 0.076

TRIM25 (UniProt Q14258)
inactive: [1] 0.047 | [2] 0.001 | [3] 0.001 | [4] 0.013 | [5] 0.044

TRIR (UniProt Q9BQ61)
inactive: [1] 0.081 | [2] -0.035 | [3] -0.019 | [4] -0.044 | [5] -0.066

TTC4 (UniProt O95801)
inactive: [1] -0.018 | [2] -0.003 | [3] 0.001 | [4] 0.033 | [5] -0.013

TRIP6 (UniProt Q15654)
inactive: [1] 0.02 | [2] 0.029 | [3] -0.01 | [4] 0.014 | [5] -0.027

TRMT5 (UniProt Q32P41)
inactive: [1] -0.009 | [2] -0.01 | [3] 0.046 | [4] 0.021 | [5] -0.014

TRAPPC8 (UniProt Q9Y2L5)
inactive: [1] -0.009 | [2] -0.024 | [3] 0.002 | [4] 0.013 | [5] 0.003

TSPAN13 (UniProt O95857)
inactive: [1] 0.076 | [2] 0.025 | [3] -0.048 | [4] 0.187 | [5] -0.131

TSPAN14 (UniProt Q8NG11)
inactive: [1] -0.063 | [2] -0.036 | [3] 0 | [4] 0.014 | [5] -0.027

TRMT11 (UniProt Q7Z4G4)
inactive: [1] 0 | [2] 0.049 | [3] 0 | [4] 0.039 | [5] 0.021

TSPO (UniProt P30536)
inactive: [1] -0.088 | [2] -0.119 | [3] 0.017 | [4] -0.108 | [5] -0.079

TSSC4 (UniProt Q9Y5U2)
inactive: [1] 0.055 | [2] 0.07 | [3] 0.05 | [4] -0.022 | [5] -0.068

TRPC4AP (UniProt Q8TEL6)
inactive: [1] -0.013 | [2] -0.014 | [3] 0.041 | [4] -0.08 | [5] 0.034

TRUB1 (UniProt Q8WWH5)
inactive: [1] -0.033 | [2] 0.061 | [3] -0.014 | [4] -0.042 | [5] 0

TRAPPC10 (UniProt P48553)
inactive: [1] -0.014 | [2] -0.015 | [3] 0.033 | [4] -0.004 | [5] -0.012

TSEN2 (UniProt Q8NCE0)
inactive: [1] 0.034 | [2] 0.004 | [3] 0.08 | [4] -0.088 | [5] 0

TRAPPC1 (UniProt Q9Y5R8)
inactive: [1] 0.039 | [2] 0.077 | [3] -0.009 | [4] 0.024 | [5] -0.088

TRMT61A (UniProt Q96FX7)
inactive: [1] 0.042 | [2] -0.071 | [3] 0.005 | [4] -0.074 | [5] 0.007

Quoted from above (2 entries):
TSEN2 (UniProt Q8NCE0)
inactive: [1] 0.034 | [2] 0.004 | [3] 0.08 | [4] -0.088 | [5] 0

TRAPPC1 (UniProt Q9Y5R8)
inactive: [1] 0.039 | [2] 0.077 | [3] -0.009 | [4] 0.024 | [5] -0.088

Carrying on.

TRIM32 (UniProt Q13049)
inactive: [1] -0.026 | [2] 0.024 | [3] 0.014 | [4] -0.091 | [5] 0.017

TRIT1 (UniProt Q9H3H1)
inactive: [1] -0.029 | [2] -0.088 | [3] 0.025 | [4] -0.07 | [5] 0.037

TRAPPC4 (UniProt Q9Y296)
inactive: [1] -0.023 | [2] -0.01 | [3] 0.015 | [4] 0.013 | [5] 0.051

TSC22D1 (UniProt Q15714)
inactive: [1] 0.03 | [2] -0.021 | [3] -0.006 | [4] -0.041 | [5] 0.023

TRAPPC13 isoform 4 (UniProt A5PLN9)
inactive: [1] -0.006 | [2] 0.029 | [3] 0.013 | [4] 0.046 | [5] -0.024

TRAP1 (UniProt Q12931)
inactive: [1] -0.007 | [2] 0.021 | [3] 0.006 | [4] 0.042 | [5] 0.035

TTL (UniProt Q8NG68)
inactive: [1] 0.004 | [2] -0.029 | [3] 0.145 | [4] 0.014 | [5] 0.104

TRIM38 (UniProt O00635)
inactive: [1] 0.087 | [2] 0.006 | [3] -0.014 | [4] -0.015 | [5] 0.021

TRAPPC9 isoform 2 (UniProt Q96Q05)
inactive: [1] 0.001 | [2] 0.05 | [3] 0 | [4] 0.055 | [5] -0.042

TSR1 (UniProt Q2NL82)
inactive: [1] 0.01 | [2] 0.026 | [3] 0.038 | [4] 0.041 | [5] 0.067

Reprinted at random: 3 entries already listed, in no set order.
TRAPPC13 isoform 4 (UniProt A5PLN9)
inactive: [1] -0.006 | [2] 0.029 | [3] 0.013 | [4] 0.046 | [5] -0.024

TSR1 (UniProt Q2NL82)
inactive: [1] 0.01 | [2] 0.026 | [3] 0.038 | [4] 0.041 | [5] 0.067

TRAPPC9 isoform 2 (UniProt Q96Q05)
inactive: [1] 0.001 | [2] 0.05 | [3] 0 | [4] 0.055 | [5] -0.042

Remaining list, next part:

TRIOBP (UniProt Q9H2D6)
inactive: [1] -0.062 | [2] 0.002 | [3] -0.085 | [4] -0.046 | [5] -0.068

TSTA3 (UniProt Q13630)
inactive: [1] 0.007 | [2] 0.042 | [3] -0.009 | [4] 0.047 | [5] 0.011

TRIM58 (UniProt Q8NG06)
inactive: [1] -0.011 | [2] 0.064 | [3] -0.037 | [4] 0.032 | [5] 0.037

TRIM5 (UniProt Q9C035)
inactive: [1] 0.068 | [2] 0.026 | [3] -0.032 | [4] -0.044 | [5] -0.004

TRAPPC2 isoform 3 (UniProt P0DI81)
inactive: [1] 0.009 | [2] -0.025 | [3] 0.01 | [4] 0.054 | [5] -0.01
